These are yes or no findings as the source states them, for the method shown. Some binding calls cover weakened binding; strength is not graded here. Sequences can lack the tags named with a protein.
Target: T1, Human N-terminally GST-tagged VAP-A (vesicle-associated membrane protein-associated protein A) (human) (UniProt Q9P0L0)
T1 sequence: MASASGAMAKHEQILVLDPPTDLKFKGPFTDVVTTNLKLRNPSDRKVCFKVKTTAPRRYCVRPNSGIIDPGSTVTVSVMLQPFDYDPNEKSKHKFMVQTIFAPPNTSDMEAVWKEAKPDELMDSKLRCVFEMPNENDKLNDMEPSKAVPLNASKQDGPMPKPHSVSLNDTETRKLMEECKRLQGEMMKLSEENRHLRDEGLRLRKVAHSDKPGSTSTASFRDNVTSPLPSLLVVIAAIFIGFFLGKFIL
Assay: pull-down; 0.5 uM His-bGLTP, alone (CTRL) or pre-incubated with 5 uM glycolipid (GlcCer of different acyl chain lengths, or POPC; in DMSO) in 1x PBS pH 7.4 for 45 min at 37°C; 2.5 uM GST-VAP-A added, 30 min at 37°C; captured on Glutathione Sepharose 4 Fast Flow beads 1 h at 4°C, washed with 20 mM Tris-HCl, 150 mM NaCl, 1 mM EDTA, 10% glycerol, 0.1% Triton X-100, pH 7.4; Western blot with anti-GLTP and anti-GST; both purified

- binding: binds
B1: Bovine His-GLTP (glycolipid transfer protein) (protein, UniProt P68265 1-209)
chain: MALLAEHLLRPLPADKQIETGPFLEAVSHLPPFFDCLGSPVFTPIKADISGNITKIKAVYDTNPTKFRTLQNILEVEKEMYGAEWPKVGATLALMWLKRGLRFIQVFLQSICDGERDENHPNLIRVNATKAYEMALKKYHGWIVQKIFQAALYAAPYKSDFLKALSKGQNVTEEECLEKVRLFLVNYTATIDVIYEMYTRMNAELNYKV

— paper PMC6294359
